Cleaved PARP in drug-treated melanoma cells

Source: doi:10.1371/journal.pone.0140310, primary screening data, rounded.

Drugs:
indole-3-carbinol (4 µM): OCc1c[nH]c2ccccc12
GSK0660 (5 µM): COC(=O)c1sccc1S(=O)(=O)Nc1ccc(Nc2ccccc2)cc1OC
Src-I1 (10 µM): COc1cc2ncnc(Nc3ccc(Oc4ccccc4)cc3)c2cc1OC
LFM-A13 (10 µM): C/C(O)=C(\C#N)C(=O)Nc1cc(Br)ccc1Br
VX-702 (2 µM): NC(=O)c1ccc(N(C(N)=O)c2c(F)cccc2F)nc1-c1ccc(F)cc1F

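Human melanoma cell lines in 1,536-well plates were treated with a pair of drugs for 72 h, then fixed, stained and imaged. Values are the share of nuclei positive for cleaved PARP as a percentage of the same share in the DMSO control: 100 is the control level, higher means more apoptosis. Concentrations were fixed for each drug; these are the higher of two levels. These are primary screening values without error estimates. The marker varies much from line to line, for technical or biological reasons.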 An unselected part of the screen is shown. An entry leaves out what has no value listed here. A dash means that no value is listed here.

Cell line | Src-I1 and LFM-A13 | VX-702 and GSK0660 | indole-3-carbinol and LFM-A13 | Src-I1 and GSK0660 | indole-3-carbinol and GSK0660 | indole-3-carbinol and Src-I1 | VX-702 and indole-3-carbinol
G-361 | 86.1 | 80.2 | 479 | 295 | 36.8 | 264 | 131
WM1716 | 46.0 | 126 | 84.2 | 85.0 | 82.8 | 43.7 | 46.0
SK-MEL-5 | 82.9 | 179 | 164 | 431 | 103 | 113 | 71.6
C32 | 159 | 69.3 | 74.0 | 88.4 | 64.0 | 150 | 34.3
WM3526 | 160 | 66.9 | 442 | 251 | 54.2 | 152 | 66.0
SK-MEL-28 | 83.8 | 88.3 | 252 | 47.9 | 96.3 | 122 | 170
WM115 | 56.1 | 391 | 2230 | 79.0 | 74.5 | 195 | 126
501mel | 58.9 | 42.0 | 148 | 198 | 41.1 | 36.5 | -
COLO 800 | 235 | 103 | 85.7 | 80.6 | 175 | 194 | 305
SK-MEL-30 | 94.1 | 79.0 | 150 | 36.6 | 87.2 | 73.9 | 198
RPMI-7951 | 95.6 | 174 | 63.5 | 101 | 30.9 | 154 | 86.8
MEL-HO | 395 | 112 | 80.1 | 53.1 | 128 | 52.5 | 79.5
A101D | 114 | 25.0 | 51.2 | 138 | 96.7 | 186 | 35.5
A375 | 25.0 | 46.7 | 173 | 61.4 | 91.5 | 61.7 | 72.6
COLO 829 | 87.9 | 24.4 | 91.7 | 81.2 | 91.6 | 60.6 | 104
WM3619 | 108 | 72.6 | 84.8 | 136 | 82.3 | 94.2 | 119
SK-MEL-2 | 75.8 | 214 | 106 | 99.2 | 62.9 | 66.3 | 111
COLO 792 | 55.1 | 117 | 125 | 95.7 | 88.2 | 134 | 115
IST-MEL1 | 64.6 | 84.5 | 111 | 51.7 | 68.2 | 170 | 211
RVH-421 | 54.8 | 73.0 | 89.3 | 29.3 | 85.8 | 87.4 | 95.0
UACC-62 | 55.8 | 216 | 314 | 116 | 158 | 203 | 98.3
WM451Lu | 31.8 | 147 | 66.0 | 84.2 | 26.7 | 61.8 | 70.9
IPC-298 | 108 | 94.5 | 171 | 61.2 | 34.6 | 143 | 127
WM1745 | 127 | - | - | 150 | - | - | 102
UACC-257 | 44.1 | 59.0 | 125 | 42.5 | 71.2 | 44.1 | 44.3
LB2518-MEL | 85.9 | 170 | 54.9 | 50.8 | 22.9 | 75.0 | 70.8
LOX IMVI | 124 | 47.3 | 29.6 | 155 | 154 | 75.5 | 54.2
MeWo | 130 | 178 | 411 | 16.4 | 63.4 | 58.7 | 58.4
A2058 | 47.6 | 148 | 66.1 | 164 | 85.9 | 117 | 89.4
MZ2-MEL | 26.2 | 34.5 | 148 | 125 | 33.0 | 122 | 74.7

The first 3 entries again:

* G-361 | Src-I1 and LFM-A13: 86.1; VX-702 and GSK0660: 80.2; indole-3-carbinol and LFM-A13: 479; Src-I1 and GSK0660: 295; indole-3-carbinol and GSK0660: 36.8; indole-3-carbinol and Src-I1: 264; VX-702 and indole-3-carbinol: 131
* WM1716 | Src-I1 and LFM-A13: 46.0; VX-702 and GSK0660: 126; indole-3-carbinol and LFM-A13: 84.2; Src-I1 and GSK0660: 85.0; indole-3-carbinol and GSK0660: 82.8; indole-3-carbinol and Src-I1: 43.7; VX-702 and indole-3-carbinol: 46.0
* SK-MEL-5 | Src-I1 and LFM-A13: 82.9; VX-702 and GSK0660: 179; indole-3-carbinol and LFM-A13: 164; Src-I1 and GSK0660: 431; indole-3-carbinol and GSK0660: 103; indole-3-carbinol and Src-I1: 113; VX-702 and indole-3-carbinol: 71.6